From PubChem BioAssay AID2551 (National Center for Advancing Translational Sciences (NCATS), 2010)
Where “and” joins values, the source holds several entries; their conditions need not be identical. Equal entries are not always repeated. Screen size: about 310,000 compounds; about 17,000 (5.5%) were called active. This list was built around the results that the source calls inconclusive (neither active nor inactive); the mix of calls is not that of the screen. Calls come from the whole dose curve; as a rule, active = well fitted inhibition curve with a large enough effect; inconclusive = small, poorly fitted or top-dose-only effect, or effect the other way; inactive = no such curve, though single readings can be large or run the other way. A potency beside an inconclusive call is a rough fit, not a confirmed value. Some structures have more than one record in an assay (separate samples or runs), and their calls can disagree.

Chains of the proteins cited; added tags and fusions are not shown. Lines headed by an entry give the natural chain unless they say otherwise; changes in a name come on top.
UniProt P51450: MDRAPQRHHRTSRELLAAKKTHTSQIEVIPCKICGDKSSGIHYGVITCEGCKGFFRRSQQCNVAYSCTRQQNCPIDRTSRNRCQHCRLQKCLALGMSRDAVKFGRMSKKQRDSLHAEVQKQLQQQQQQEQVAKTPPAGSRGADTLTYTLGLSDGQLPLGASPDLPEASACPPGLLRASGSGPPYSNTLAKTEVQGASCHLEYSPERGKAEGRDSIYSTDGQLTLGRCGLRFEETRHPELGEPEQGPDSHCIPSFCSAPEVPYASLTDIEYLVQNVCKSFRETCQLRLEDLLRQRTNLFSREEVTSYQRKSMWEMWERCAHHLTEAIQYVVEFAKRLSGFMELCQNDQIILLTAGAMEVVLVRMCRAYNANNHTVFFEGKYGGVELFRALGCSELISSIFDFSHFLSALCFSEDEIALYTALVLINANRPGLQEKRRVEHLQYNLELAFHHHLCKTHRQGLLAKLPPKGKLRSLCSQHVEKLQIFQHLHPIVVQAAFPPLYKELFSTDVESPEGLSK

target: Nuclear receptor ROR-gamma (Mus musculus) (UniProt P51450); test: qHTS for inhibitors of ROR gamma transcriptional activity; settings: Drosophila S2 Gal4-RORgamma UAS-luciferase reporter, 20 h; series mostly up to 53.6 µM; note: nearly all actives have a fitted effect of over 60% in size
Excerpt: NIH Molecular Libraries Probe Production Network [MLPCN] NIH Chemical Genomics Center [NCGC] MLPCN Grant: R03 DA026211-01 Assay Provider: Dan Littman, New York University Assay Overview: The retinoic acid-related orphan receptor (ROR) gamma is a transcription factor that has a central role in the differentiation of Th17 cells, a subset of T helper cells that secrete the inflammatory cytokines IL-17, IL-17F, and IL-22. Th17 cells have been implicated in graft versus host disease, autoimmune disease and asthma. ROR gamma is induced in naive T helper cells in the presence of TGF-beta combined with IL-6, IL-21, or IL-23, and thereafter directs the expression of the Th17 lineage cytokines. To study the mechanism of action of ROR gamma, an insect cell-based assay was screened. This Drosophila Schneider cell line was stably transfected with two vectors: a gene expressing a fusion of the Gal4 DNA binding domain and ROR gamma transactivation domain under the control of the metallothionine promoter and a Photinus luciferase reporter regulated by the Gal4 binding site enhancer, UAS. […] Small molecule inhibitors of ROR gamma activity are detected by a decrease in luciferase reporter activity.
Assay Protocol Summary: For screening, 600 cells in 4 uL/well were dispensed into white solid 1536-well plates (Grenier) using a solenoid-based dispenser. Following transfer of 23 nL compound or DMSO vehicle by a pin tool, the plates were incubated 1 hr at ambient temperature, and 1 uL/well copper sulfate (700 uM final concentration) was added. The plates were centrifuged 15 s at 1000 RPM and incubated 20 hr at ambient temperature. After addition of 1.5 uL Photinus luciferase detection reagent, the plates were incubated 10 min at ambient temperature and then read by an ViewLux (Perkin Elmer) to detect luminescence. Keywords: NIH Roadmap, MLPCN, MLI, MLSMR, qHTS, NCGC, qHTS, nuclear hormone receptor, retinoic acid-related orphan receptor, ROR gamma
Potency is the fitted concentration of half-maximal effect.

| SMILES | Potency |
| --- | --- |
| CSc1nsc(SCC(=O)Nc2ccc(C(N)=O)cc2)n1 | active: 3.16 µM |
| CN1CCN(C(=S)NC(=O)/C=C/c2ccccc2Cl)CC1 | active: 2.51 µM |
| O=C(c1cccs1)N1CCCc2ccccc21 | inactive |
| CCOc1ccc(C(=O)CCC(=O)N(CC)CC(=O)NCc2ccc(Cl)cc2)cc1 | inactive |
| Cn1ccnc1Sc1ccc(C(N)=O)cc1[N+](=O)[O-] | inconclusive: 3.55 µM [inhibitor, partial curve] |
| Cc1cc(=O)oc(C)c1C(=O)NC1CC(C)(C)NC(C)(C)C1 | inconclusive: 22.4 µM [inhibitor, single point] |
| O=C(Nc1ccc(F)cc1)NC1(C(=O)NCc2ccco2)CCCCC1 | inconclusive: 1.12 µM [inhibitor, full curve, poor fit] |
| CCOc1ccc(NC(=S)NN2C(C)CCCC2C)cc1 (configuration not stated) | active: 2.24 µM |
| CS(=O)(=O)Nc1cccc(-c2ccc3ncnc(Nc4ccccc4)c3c2)c1 | inconclusive: 14.1 µM [activator, partial curve] |
| CCOc1ccc(-c2nnc3sc(COc4ccc(C)cc4)nn23)cc1 | inactive |
| Cc1cc(C)cc(C(=O)OCC(=O)NCc2cccs2)c1 | inconclusive: 35.5 µM [activator, single point] |
| Cc1nc2cc(NC(=O)CCS(=O)(=O)c3ccccc3)ccc2s1 | active: 15.8 µM |
| COc1cccc(-c2ccc(NC(=O)C3CCCN(CCCn4cccn4)C3)cc2)c1 (configuration not stated) | inconclusive: 5.62 µM [inhibitor, single point] |
| O=C(c1cc(-c2ccc(Cl)cc2)n(-c2ccc(Cl)cc2)n1)N1CCOCC1 | inconclusive: 35.5 µM [inhibitor, single point] |
| CCOC(=O)c1sc2nc(CN3CCCCC3)nc(Cl)c2c1C | inconclusive: 11.2 µM [inhibitor, partial curve] |
| Cc1cc2c(N=O)c(NO)ccc2[nH]1 | active: 5.01 µM |
| COc1ccccc1CN1CC2(CCN(C(=O)c3cc(C(F)(F)F)cc(C(F)(F)F)c3)CC2)C1 | inactive |
| CCOc1nc(-c2ccccc2)ccc1-c1noc(-c2ccco2)n1 | inconclusive: 1 µM [activator, partial curve] |
| C/C(=N\NC(=S)NC(C)C)c1ccc2c(c1)OCCO2 | active: 2 µM |
| CC(=O)Nc1cc(OC(C)=O)c2nonc2c1OC(C)=O | active: 11.2 µM |
| Cc1cc(NC(=O)c2ccccc2C)ccc1NC(=O)c1ccccc1Cl | inactive |
| Cc1ccc(CCC(=O)Nc2nccs2)o1 | inactive |
| CCc1ccccc1N(C(=O)c1snc(C(N)=O)c1N)C(C(=O)NCC1CCCO1)c1ccc(C)o1 (configuration not stated) | inactive |
| C[C@@H]([C@@H](O)c1ccccc1)N(C)C(=O)C(N)Cc1ccccc1 (some centres not stated) | inactive |
| COc1ccc(CCN2CCC(Nc3nc4ccccc4n3Cc3ccc(F)cc3)CC2)cc1 | active: 2.51 µM and active: 14.1 µM |
| COc1cccc(NC(=S)Nc2ccc(F)cc2)c1 | active: 15.8 µM |

| SMILES | Potency |
| --- | --- |
| CSc1nc2ccc(NC(=O)c3ccco3)cc2s1 | inconclusive: 20 µM [activator, single point] |
| COc1ccc(NC(=O)Nc2ccc(F)c(Cl)c2)cc1 | inconclusive: 35.5 µM [activator, partial curve] |
| Cc1cc(C(F)(F)Cl)n2ncc(-c3ccccn3)c2n1 | inconclusive: 3.55 µM [inhibitor, partial curve] |
| CC(C)c1ccc(NC2CCCN(C(=O)c3ccnc(Cl)c3)C2)cc1 (configuration not stated) | inactive |
| Cc1ccc2nc(NC(=O)c3ccc(Br)o3)sc2c1 | inconclusive: 15.8 µM [inhibitor, single point] |
| Cc1nc([N+](=O)[O-])c(Br)n1CC(=O)c1ccc2ccccc2c1 | active: 14.1 µM |
| CC(C)(C)NC(=O)NC(=O)COC(=O)CCC1CCCC1 | inactive |
| Cn1c(=O)c(C(=O)CSc2ccccc2)c(N)n(Cc2ccccc2)c1=O | inactive |
| C=C(C)Cn1c(CCNC(=O)CC)nc2ccccc21 | inactive |
| COc1cccc(NC(=O)N2CCCC2C(=O)NCc2ccc(Cl)cc2)c1 (configuration not stated) | inconclusive: 6.31 µM [inhibitor, single point] |
| O=C1C=C(Nc2ccccc2O)c2ccccc2C1=O | inconclusive: 35.5 µM [inhibitor, single point] |
| O=C(NNC(=S)Nc1ccc(Br)cc1)c1ccccc1Br | inconclusive: 15.8 µM [inhibitor, partial curve, poor fit] |
| O=C(Cn1nnc(-c2ccccc2Cl)n1)N/N=C/c1ccc(-c2cccc(Cl)c2)o1 | active: 7.08 µM |
| CC1(C(=O)OCC(=O)c2c[nH]c3ccccc23)CC1(Cl)Cl (configuration not stated) | inconclusive: 0.199 µM [activator, partial curve] |
| COc1ccccc1C1(O)C(=O)Nc2ccc(C)cc21 (configuration not stated) | inactive |
| COc1ccc(-c2nn(-c3ccccc3)cc2/C=N/Nc2cccc(C(=O)O)c2)cc1 | inconclusive: 35.5 µM [activator, single point] |
| O=C(COc1ccc(F)cc1)OCCN1CCOCC1 | inactive |
| COc1ccccc1CNc1nc(-c2ccccc2OC)nc2ccccc12 | inconclusive: 15.8 µM [inhibitor, single point] |
| Cc1cc(C)n(C(=O)/C=C/c2cccs2)n1 | inactive |
| Cc1ccc(OCC(=O)OCC(=O)c2cccc([N+](=O)[O-])c2)cc1C | inactive |
| CCc1cc2c(=O)c(-c3nc4ccccc4n3C)c(COCC(=O)O)oc2cc1OC(=O)C(C)(C)C | active: 4.47 µM |
| C/C(=N/NC(=O)CNC(=O)c1ccc2c(c1)OCO2)c1ccc2c(c1)CCCC2 | inconclusive: 4.47 µM [activator, partial curve] |
| CN(C)C(=O)COc1ccc2cc(-c3ccccc3)c(=O)oc2c1 | inconclusive: 10 µM [activator, partial curve] |
| CCCCc1c(C)c(C#N)c2[nH]c3ccccc3n2c1=O | inconclusive: 35.5 µM [inhibitor, single point] |
| O=C(CCN1C(=O)/C(=C/c2ccccc2Cl)SC1=S)Nc1ccccn1 | inactive |
| O=C(N/N=C\c1ccc(Cl)cc1Cl)c1sccc1-n1cccc1 | inconclusive: 15.8 µM [inhibitor, single point] |

In a second layout: results already given
SMILES | Potency
O=C(Cn1nnc(-c2ccccc2Cl)n1)N/N=C/c1ccc(-c2cccc(Cl)c2)o1 | active: 7.08 µM
CC1(C(=O)OCC(=O)c2c[nH]c3ccccc23)CC1(Cl)Cl (configuration not stated) | inconclusive: 0.199 µM [activator, partial curve]
